These results are taken from paper PMC7819943, “Rice protein-binding microarrays: a tool to detect cis-acting elements near promoter regions in rice”.

By UniProt entry, the sequences of proteins in these tests, tags left out.
UniProt Q0JBA9, entry or part of it: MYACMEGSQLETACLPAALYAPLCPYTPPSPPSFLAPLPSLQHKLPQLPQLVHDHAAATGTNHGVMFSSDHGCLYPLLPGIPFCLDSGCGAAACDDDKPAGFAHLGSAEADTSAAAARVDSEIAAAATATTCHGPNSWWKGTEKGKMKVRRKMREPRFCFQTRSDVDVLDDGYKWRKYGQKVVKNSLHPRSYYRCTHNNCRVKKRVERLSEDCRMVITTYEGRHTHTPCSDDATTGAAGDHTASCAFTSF

Some of the results follow.

For the experiment, the target named is OsWRKY34 (Oryza sativa, UniProt Q0JBA9 1-250). Nature of the experiment: protein-binding microarray (RPBM); PBS, 2% BSA, 51.3 ng/ul salmon testes DNA, 50 uM zinc acetate, 200 nM TF, 25 C, 1 h; high values mean tight binding. As to conditions: protein: recombinant; tags: N-terminal polyhistidine and DsRed monomer fusion (pET32a); label: CyDye5-dUTP incorporated in the synthesized complementary strand; 3' TTTTT single-stranded linker to array surface; dsDNA, one strand shown. In a few lines: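 An Axon 4000B scanner gave the binding signal as per-feature fluorescence intensity in arbitrary units. This followed washing of a custom Agilent array that had been incubated for 1 h at 25 °C with 200 nM protein in PBS, 2% BSA, salmon testes DNA and 50 µM zinc acetate. The proteins were transcription factors fused at the N-terminus to polyhistidine and DsRed, expressed in E. coli BL21-CodonPlus and purified on Ni–NTA.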
Regarding “GGCTGTTCCTGTTGAGATTTGAGCCCTGCTTTGGGCTTATCGGAGTCACCTAGTGCAG”, the binding signal is 9510 fluorescence intensity (a.u.).
The same measure for “ATCCCTGTTCGTTTCTCACGTTTATGTGACCAGCTGTTGACGGAGTCACCTAGTGCAG”: 10200 fluorescence intensity (a.u.); for “TGCTACCAACGGCCGGTATCAATCCATGTCATGTCTGTCACGGAGTCACCTAGTGCAG”: 8350 fluorescence intensity (a.u.).
Regarding “CTTCAGCTGAGTCTGTTTCGAAGACTACTCTGGTTGCTGCCGGAGTCACCTAGTGCAG”, the binding signal is 11000 fluorescence intensity (a.u.).
For “TTTTCTCTCTCATCACCATGATTCTCTTCTTATATATATACGGAGTCACCTAGTGCAG” the value was 8580 fluorescence intensity (a.u.).
For “CACATCCCCATCCGTGCTCTCTCTTTGTTTCTTTCTAGATCGGAGTCACCTAGTGCAG” the value was 9400 fluorescence intensity (a.u.); for “TGTAAATTGTATTTCTATATGGACTCTGTTTTTTCTTTTTCGGAGTCACCTAGTGCAG”, 10800 fluorescence intensity (a.u.); for “CATTCCGTGTCTGTCTACTACGACTCCAAATTAAATTTCACGGAGTCACCTAGTGCAG”, 8350 fluorescence intensity (a.u.).
The same measure for “ATCACCTTGCTCGATCGCCTCCGTTGTTTTGCACTAAATTCGGAGTCACCTAGTGCAG”: 8620 fluorescence intensity (a.u.).
As for “TGTGGGTGGCTATAAATAGGGCAGGGTGCGGTTGCCATTGCGGAGTCACCTAGTGCAG”, the binding signal was 8740 fluorescence intensity (a.u.).
For “GTACAAAATAGTATACCTTTTCTTATCCCTTTTGAATTTCCGGAGTCACCTAGTGCAG” the value was 8040 fluorescence intensity (a.u.); for “GAACAAACCCTTTTACTATTTTGGCCGCCGGTTGTTGGGCCGGAGTCACCTAGTGCAG”, 8470 fluorescence intensity (a.u.); for “ACACTCACCTATAAATTGCATTCACCCGCTTCACACTTTCCGGAGTCACCTAGTGCAG”, 11800 fluorescence intensity (a.u.).
On to “ATCTGGTAACTCAAGTGCTCTCTTCCTGACTGCTGCAGCACGGAGTCACCTAGTGCAG”, for which the binding signal is 9470 fluorescence intensity (a.u.).
For “GAGCTGGGGTGGTGTTTGTTTGTGGGTGTGTTTGTGTGCTCGGAGTCACCTAGTGCAG” the value was 15900 fluorescence intensity (a.u.).
The same measure for “TGCGCAGGGGTGGAGGGGATCGTGAGCAATGCGGACAATTCGGAGTCACCTAGTGCAG”: 12300 fluorescence intensity (a.u.).
The same measure for “CCAATGATATGTGCCGAAGTTGTATTTATCGAGAGATATTCGGAGTCACCTAGTGCAG”: 9850 fluorescence intensity (a.u.).
As to “GGTGGTGGGTGGTTACGACTGATGCGGCGCGGCGAGTGGTCGGAGTCACCTAGTGCAG”, the binding signal is 8370 fluorescence intensity (a.u.).
Take “GCTACATCGGTATATTCCGTGCGCTTGCGGATTTTATCTACGGAGTCACCTAGTGCAG”: the binding signal is 9990 fluorescence intensity (a.u.).
As to “CATTTTTCCCGGTCCAATTACACACGTGGGGTGTGTTTGCCGGAGTCACCTAGTGCAG”, the binding signal was 8470 fluorescence intensity (a.u.).
For “ACCGCGTGAGTATTTTCCTCTTTTCTTTTCTTTTTTTTCTCGGAGTCACCTAGTGCAG” the value was 9790 fluorescence intensity (a.u.); for “AAAACGAGGCCCGAACGGCTGAACATGGTCAATTTTCCCTCGGAGTCACCTAGTGCAG”, 8520 fluorescence intensity (a.u.); for “AAACATACCTCTGCCCACATTCGTTGTACTAGAATATGTCCGGAGTCACCTAGTGCAG”, 8960 fluorescence intensity (a.u.).
The same measure for “CAGTGGAGGGTTGGATCGGTGTGTAGGGGCTTAAGTGCAACGGAGTCACCTAGTGCAG”: 9610 fluorescence intensity (a.u.); for “AGGTCACCCACGCACCTCGCGCTTAATTTATTTGTTTCCACGGAGTCACCTAGTGCAG”: 10200 fluorescence intensity (a.u.).
The same measure for “TACGTTTCAGTTGTGCTTGTTCGGACCTTTCGATTTCTTTCGGAGTCACCTAGTGCAG”: 13900 fluorescence intensity (a.u.); for “ATGATTTTTGGGTCATTTGGTTTGTTTTTGACTTTTGCAACGGAGTCACCTAGTGCAG”: 12100 fluorescence intensity (a.u.); for “AGGAAGTATATGTTTGTAGGTAACTATTATATGAATTGAACGGAGTCACCTAGTGCAG”: 8230 fluorescence intensity (a.u.).
Turning to “TCTACCTGTTTTCCACCGGATTTCATGAAAATTGTCATACCGGAGTCACCTAGTGCAG”, the binding signal was 8210 fluorescence intensity (a.u.).
For “GCCGCCGCCTCCGACCTCGCCATGCCCCGCTCCGTCGTCGCGGAGTCACCTAGTGCAG” the value was 9660 fluorescence intensity (a.u.); for “ACGACACTACACCATGACACTGGATTACTAACACACATCTCGGAGTCACCTAGTGCAG”, 9650 fluorescence intensity (a.u.).
For “CACCTCCGCATATCATCCTCCGCTTCGCTTCCGCTCGATCCGGAGTCACCTAGTGCAG” the value was 9500 fluorescence intensity (a.u.); for “TAACCCTAACTTATCCTCCTACTCTGCCCAAAATCTCATCCGGAGTCACCTAGTGCAG”, 8200 fluorescence intensity (a.u.); for “CTCTCGGGTTTCTTTTTTTTTTTTTTGCCGCGGATAGGATCGGAGTCACCTAGTGCAG”, 12400 fluorescence intensity (a.u.).
For the sequence “AAAGCGCACTGCTCGTTCTTTTCAAGTTGGTACTCTTGATCGGAGTCACCTAGTGCAG”, the binding signal is 9290 fluorescence intensity (a.u.).
With “GCATCTGCTCTAGTACCATGTATGCTATTTGGTTGTACCACGGAGTCACCTAGTGCAG”, the binding signal is 8380 fluorescence intensity (a.u.).
The same measure for “GTCATCCTCCAGGTCCACGGCCACTAGCTACCATCTAGAACGGAGTCACCTAGTGCAG”: 9390 fluorescence intensity (a.u.); for “AGTTGACTTGACCGAGTGGACTAGGTGCATCATCTTCCTTCGGAGTCACCTAGTGCAG”: 8400 fluorescence intensity (a.u.).
The same measure for “ACTCGTGCCGATTCCTTTCCCCTCCTATTGATGCAAATTACGGAGTCACCTAGTGCAG”: 8120 fluorescence intensity (a.u.); for “AAAGGGATATATGTGGAATGTTTGGCTTTCTTTTGCCATTCGGAGTCACCTAGTGCAG”: 10500 fluorescence intensity (a.u.).
The same measure for “GCAAATGAGCCTATATTATGCCATCCTTTGGTATCCTTGTCGGAGTCACCTAGTGCAG”: 9400 fluorescence intensity (a.u.).
With “GATATTTTTTTTCTATGGACCATCTATCTAGGAATCTTTTCGGAGTCACCTAGTGCAG”, the binding signal is 8920 fluorescence intensity (a.u.).
